In patent US8759300 one finds binding data, which are given here for four molecules.

The target in experiment [1] is transforming growth factor-β1 (TGF-β1) (human). Kind of experiment: peptide binding to the GF.
Experiment [2] addresses platelet-derived growth factor-BB (PDGF-BB) (human). Description: peptide binding to PDGF-BB.

Results are given in words; binding and its absence hold for the method and conditions named. A result given as binding can be weak or reduced; the word gives no strength.

Turning to QPSVGQQMIFEEHGFRRTTPPTTAT [peptide 4 (FN2043-2067) …], the binding entry in experiment [1] and in experiment [2] was “binds” throughout.

On to QPSHISKYILRWRPKNSVGRWKEAT [peptide 1 (FN634-658) …], for which the binding entry in experiment [1] and in experiment [2] was “binds” each time.

Regarding QLISIQQYGHQEVTRFDFTTTSTST [peptide 2 (FN680-704) …], the binding result in experiment [1] and in experiment [2] was “binds” throughout.

As to NGQTPIQRTIKPDVRSYTITGLQPGT [peptide 3 …], the binding entry in experiment [1] and in experiment [2] was “binds” each time.
